Reference: patent publication US4769445 (dated 1988)

Experiment: general procedure: peptide synthesis; aminomethyl-polystyrene with 4-(oxymethyl)phenylacetyl handle (PAM-Resin); active esters of protected amino acids
Details: whole synthesis, overall theoretical yield, ammonium salt

cholecystokinin (26-33)
crude yield: 105% | isolated yield (run 1): 23% | isolated yield (run 2): 29%
